Experimental data from PubChem BioAssay AID743255 (National Center for Advancing Translational Sciences (NCATS), 2014).
Among all 390,000 compounds or so, about 910 (0.23%) were called active. The shares of active, inactive and inconclusive entries below differ from those in the screen. Calls come from the whole dose curve; as a rule, active = well fitted inhibition curve with a large enough effect; inconclusive = small, poorly fitted or top-dose-only effect; inactive = no such curve, though single readings can be large or run the other way. Where the call is inconclusive, the potency comes from a doubtful curve fit.

By UniProt entry, the sequences of proteins in these tests, tags left out. Where a name states a change or a piece, a line headed by the entry shows the natural chain unless it says otherwise.
UniProt O94782: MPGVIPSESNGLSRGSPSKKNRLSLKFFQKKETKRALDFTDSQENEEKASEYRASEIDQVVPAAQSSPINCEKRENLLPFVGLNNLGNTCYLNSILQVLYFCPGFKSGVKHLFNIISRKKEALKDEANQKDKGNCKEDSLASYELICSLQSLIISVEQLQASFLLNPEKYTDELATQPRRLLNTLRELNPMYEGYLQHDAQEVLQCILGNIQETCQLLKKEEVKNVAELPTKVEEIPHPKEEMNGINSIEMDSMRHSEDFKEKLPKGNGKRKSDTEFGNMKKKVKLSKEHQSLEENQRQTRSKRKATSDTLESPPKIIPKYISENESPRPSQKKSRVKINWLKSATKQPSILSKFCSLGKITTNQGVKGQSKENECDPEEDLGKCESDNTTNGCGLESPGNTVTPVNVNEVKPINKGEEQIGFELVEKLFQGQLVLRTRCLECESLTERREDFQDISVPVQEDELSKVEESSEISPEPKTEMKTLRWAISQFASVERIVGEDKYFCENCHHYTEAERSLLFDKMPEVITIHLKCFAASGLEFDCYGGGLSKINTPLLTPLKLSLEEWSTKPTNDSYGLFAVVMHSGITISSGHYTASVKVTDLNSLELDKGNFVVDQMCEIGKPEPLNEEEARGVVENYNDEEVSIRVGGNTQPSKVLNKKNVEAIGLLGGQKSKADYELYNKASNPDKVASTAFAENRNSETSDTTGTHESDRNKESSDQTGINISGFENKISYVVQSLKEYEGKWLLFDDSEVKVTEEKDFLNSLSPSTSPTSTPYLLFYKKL

biological target: Ubiquitin carboxyl-terminal hydrolase 1 (Homo sapiens) (UniProt O94782); assay: Inhibitors of USP1/UAF1: Primary Screen; conditions: recombinant USP1/UAF1, Ub-Rhodamine cleavage fluorescence; activity change, negative = inhibition: at 57.1 µM (top of the series); note: nearly all actives have a fitted effect of over 60% in size
Method in brief: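 USP1/UAF1 complex at 1 nM was preincubated with compound for 15 min at room temperature, then Ub-Rho substrate (150nM final) was added. Fluorescence (480/540 nm) was read kinetically, 6 reads every 60 seconds.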
% is set by controls: 0 for no effect and ±100 for the full control effect; potency is the fitted concentration of half-maximal effect.

Compound	Potency	activity change, negative = inhibition
O=[N+]([O-])c1ccc(C2=NN(CCO)C(=Nc3ccc(OC(F)(F)F)cc3)SC2)cc1	inactive	
CC1CCCCN1S(=O)(=O)c1ccc2[nH]c(=O)cc(C(=O)NCCc3ccc(Cl)cc3)c2c1 (centres undefined)	inactive	
COC(=O)CCNC(=O)c1ccc2nc(Cc3ccc(OC)c(OC)c3)oc2c1	inactive	
Cc1ccccc1CNC(=O)Cn1cc2c(n1)-c1c(oc(C(=O)N3CCCC3)c1C)CC2	inconclusive: 28.2 µM [inhibitor, single point]	
Clc1ccc(N2CCN(c3cnc4ccccc4n3)CC2)cc1	inconclusive: 31.6 µM [inhibitor, partial curve]	
COc1cccc(-n2cc(C(=O)Nc3ccccc3C(N)=O)c3ccccc3c2=O)c1	inactive	
C#CC(C)(C)NC(=O)CSc1nc2c(c(=O)n(C)c(=O)n2C)n1CCCC	inconclusive: 63.1 µM [inhibitor, partial curve, poor fit]	
Cc1nc(SCCOc2ccc(Cl)cc2)[nH]c(=O)c1Cc1ccccc1	inactive	
O=C(c1cccc([N+](=O)[O-])c1)N1CCN(CCc2ccncc2)CC1	inactive	
O=C(CCn1c(=S)oc2ccccc21)Nc1cccc(O)c1	inconclusive: 35.5 µM [inhibitor, partial curve, poor fit]	
Cc1cc(-n2c(SCc3ccccc3F)nc3n[nH]c(C)c3c2=N)ccc1Cl		inconclusive: -30% [inhibitor]
COCCNC(=O)c1onc(CSc2ccncc2)c1C(=O)NCCOC	inconclusive: 0.251 µM [inhibitor, full curve, poor fit]	
O=C(O)CN1C(=O)/C(=C\c2cc(Br)ccc2OCc2ccc(Cl)cc2Cl)SC1=S	inconclusive: 50.1 µM [inhibitor, partial curve, poor fit]	
COc1ccc(NS(=O)(=O)c2ccc3c(c2)n(C)c(=O)c(=O)n3C)cc1Cl	inconclusive: 0.355 µM [inhibitor, full curve, poor fit]	
O=C(NCc1ccccn1)Nc1ccccc1C(F)(F)F	inactive	
CSC1=NSC2=NC(=O)/C(=C/c3coc4ccccc4c3=O)C(=N)N12	active: 25.1 µM	
O=C(c1cccc(N2C(=O)c3ccccc3C2=O)c1)N1CCCCCC1	inactive	
COc1ccc(-n2c(SCC(=O)NCC3CCCO3)nc3ccccc3c2=O)cc1Cl (centres undefined)	inactive	
COC(=O)c1ccc(CNC(=O)c2ccc(OCC(=O)N3CCOCC3)c(OC)c2)cc1	inactive	
COc1ccc(/C=N/Nc2nnc(C)n2N)cc1OC	inconclusive: 44.7 µM [inhibitor, partial curve, poor fit]	
COc1cc(OC)cc(C(=O)N[C@H](C(=O)NNC(=O)c2ccc(Br)cc2)C(C)C)c1	inconclusive: 6.31 µM [inhibitor, single point]	
Cc1cccc(C(=O)Nc2sc3c(c2C(=O)O)CCCC3)c1	inconclusive: 4.47 µM [inhibitor, full curve]	
COc1ccc(C(=O)NC(C)c2nnc(SCC(=O)NC3=NCCS3)n2C)cc1 (centres undefined)	inconclusive: 44.7 µM [inhibitor, single point]	

An excerpt of these results, field by field:
CSC1=NSC2=NC(=O)/C(=C/c3coc4ccccc4c3=O)C(=N)N12
  Potency: active: 25.1 µM
O=C(c1cccc(N2C(=O)c3ccccc3C2=O)c1)N1CCCCCC1
  Potency: inactive
COc1ccc(-n2c(SCC(=O)NCC3CCCO3)nc3ccccc3c2=O)cc1Cl (centres undefined)
  Potency: inactive
COC(=O)c1ccc(CNC(=O)c2ccc(OCC(=O)N3CCOCC3)c(OC)c2)cc1
  Potency: inactive

Additional results:

Compound	Potency	activity change, negative = inhibition
O=C(N/N=C/c1cn(-c2cccs2)nc1-c1ccccc1)c1ccccc1Cl	inactive	
COc1ccc(N(CC(=O)N2CCN(c3ccc(F)cc3)CC2)S(=O)(=O)c2c(C)nn(C)c2C)cc1	inconclusive: 10 µM [inhibitor, full curve, poor fit]	
COc1cc(/C=C(\C#N)C(=O)c2ccc(O)c(O)c2)cc(I)c1O	active: 25.1 µM	
Cc1ccccc1CNS(=O)(=O)c1c(C)[nH]c(C)c1C(=O)N1CCCCC1	inactive	
COc1ccc(Br)cc1C(=O)Nc1ccc(O)cc1	inconclusive: 44.7 µM [inhibitor, single point]	
C(=N/Nc1nccs1)/c1cccnc1	inconclusive: 1.41 µM [inhibitor, full curve]	
Cc1oc(-c2ccccc2F)nc1CSCC(=O)NC1CCC(C)CC1 (centres undefined)	inactive	
Cc1nn2c(=O)cc(COC(=O)c3ccccc3NC(=O)C(C)C)nc2s1	inconclusive: 0.891 µM [inhibitor, full curve, poor fit]	
CCCCCOc1ccc(C2C(C(=O)c3ccc(C)o3)=C(O)C(=O)N2c2cc(C)on2)cc1 (centres undefined)	inconclusive: 39.8 µM [inhibitor, partial curve, poor fit]	
CCCNC(=O)CCn1nc(-c2ccc(C)cc2)c2ccccc2c1=O	inconclusive: 0.794 µM [inhibitor, full curve, poor fit]	
C[C@H]1CN([C@@H](C)CO)S(=O)(=O)c2ccc(Br)cc2O[C@H]1CN(C)C(=O)c1cccc(F)c1	inconclusive: 0.251 µM [inhibitor, full curve, poor fit]	
O=C(Nc1ccc(NC(=S)NC(=O)c2cccs2)cc1)c1ccco1	inconclusive: 44.7 µM [inhibitor, partial curve, poor fit]	
O=[N+]([O-])c1cc(S(=O)(=O)N2CCCC2)ccc1O	inactive	
CC(C)CNc1ncnc2c1cnn2Cc1ccccc1Cl	inconclusive: 50.1 µM [inhibitor, partial curve, poor fit]	
O=C1/C(=C/c2ccncc2)SC(=S)N1Nc1ccccc1	inconclusive: 31.6 µM [inhibitor, single point]	
Cc1ccc(C(=O)N/C(=C\c2ccc(-c3ccccc3[N+](=O)[O-])o2)C(=O)NCCCN2CCOCC2)cc1	inconclusive: 28.2 µM [inhibitor, partial curve]	
O=C(Nc1cccc(S(=O)(=O)N2CCCC2)c1)C1CCCN1C(=O)c1cccs1 (centres undefined)	inactive	
COc1ccc(N2CCN(C(CNC(=O)C(=O)NCc3ccc(C)cc3)c3cccnc3)CC2)cc1 (centres undefined)	inactive	
O=C(CCc1nnc2ccc(N3CCC4(CC3)OCCO4)nn12)N1CCCCC1	inactive	
Cc1cccc(N2CCN(C(c3ccc(F)cc3)c3nnc(-c4ccccc4)o3)CC2)c1C (centres undefined)	inconclusive: 3.16 µM [inhibitor, partial curve]	
COc1cc(C(=O)NCCc2ccc(F)cc2)c([N+](=O)[O-])cc1OC	inactive	
O=c1cc2nc(-c3ccccc3)nc(SCc3cccc(Br)c3)n2[nH]1	inactive	
CC(C)n1ncc2c(C(=O)Nc3cccc(C#N)c3)cc(C3CC3)nc21	inactive	

Grouped by structure: the compounds so far containing a CF3 group.
Compound	Potency	activity change, negative = inhibition
O=[N+]([O-])c1ccc(C2=NN(CCO)C(=Nc3ccc(OC(F)(F)F)cc3)SC2)cc1	inactive	
O=C(NCc1ccccn1)Nc1ccccc1C(F)(F)F	inactive	

Later entries

Compound	Potency	activity change, negative = inhibition
CCC(CO)Nc1ccc(-c2n[nH]c(=O)c3ccccc23)cc1[N+](=O)[O-] (centres undefined)	inactive	
O=C1C=C(C2OC(CO)C(O)C2O)C(=O)N1 (centres undefined)	inactive	
CC(C)n1cc(/C=C/c2cc[n+](C)cc2)c2ccccc21	active: 31.6 µM	
Cc1cc(C(F)(F)F)c2c(N)c(C(=O)Nc3c(Cl)cccc3Cl)sc2n1	inconclusive: 11.2 µM [inhibitor, partial curve]	
O=C(NCCSc1c(-c2ccc(Cl)cc2)[nH]c2ccccc12)c1ccc(S(=O)(=O)N2CCOCC2)cc1	inconclusive: 35.5 µM [inhibitor, partial curve]	
Cc1ccc(-c2nc(N)sc2CC(=O)OCC(=O)N2C(C)CCCC2C)cc1 (centres undefined)	inactive	
C[C@H](CO)N1C[C@H](C)[C@@H](CN(C)C(=O)NC2CCCCC2)Oc2ccc(NC(=O)Nc3ccc(C(F)(F)F)cc3)cc2C1=O	inconclusive: 112 µM [inhibitor, partial curve, poor fit]	
CCCn1nnc(NC(=O)c2ccccc2Cl)n1	inconclusive: 7.94 µM [inhibitor, single point]	
O=C1CCc2cc(NS(=O)(=O)c3ccc(F)cc3)cc3c2N1CCC3	inactive	
CCCCN(CCCC)C(=O)c1cc2c(=O)n3ccccc3nc2s1	inconclusive: 56.2 µM [inhibitor, partial curve, poor fit]	
CCCC1C2CN(C(C)C)CC=C2C(C#N)=C(N)C1(C#N)C#N (centres undefined)	inconclusive: 28.2 µM [inhibitor, partial curve]	
COc1ccc(Nc2nc(-c3c[nH]c4ccccc34)cs2)cc1	inactive	
C#CCOCCOCCOCCNc1nc(N2CCN(C(=O)CCCCCCCCCCNC(=O)[C@H](CCC(=O)O)n3cc(CCCCCN)nn3)CC2)nc(N2CCN(C(=O)CCCCCCCCCCNC(=O)[C@@H]([C@H](C)O)n3cc(C)nn3)CC2)n1	inactive	
CS(=O)(=O)N(CC(=O)N1CCCC1)c1cc(C(F)(F)F)ccc1Cl	inconclusive: 0.282 µM [inhibitor, full curve, poor fit]	
CCn1c(O)c(C=Nc2ccccc2)sc1=S	inactive	
Cn1c(=O)oc2cc(S(=O)(=O)N3CCC(C(=O)N4CCN(c5ccc(Cl)cc5)CC4)CC3)ccc21	inconclusive: 31.6 µM [inhibitor, partial curve]	
CCOc1ccc(C2C=C(c3ccc(C)cc3)Nc3nnnn32)cc1 (centres undefined)	inactive	
CCOC(=O)c1c(NC(=O)c2ccc(OC)c(OC)c2)sc2c1CCCCC2	inconclusive: 0.398 µM [inhibitor, full curve, poor fit]	
Cn1nc(-c2ccccc2)c(CN2CCN(c3ncccn3)CC2)c1Cl	inconclusive: 28.2 µM [inhibitor, partial curve]	
O=C(CNC(=O)N1CC(=O)Nc2ccccc21)Nc1ccc(Br)cc1F	inconclusive: 8.91 µM [inhibitor, partial curve]	
CC(C)C(=O)Nc1ccc(C(=O)Nc2nnc(C(C)C)s2)cc1	inconclusive: 5.01 µM [inhibitor, partial curve]	
O=S(=O)(Nc1nc2ccccc2nc1N1CCN(c2ccccn2)CC1)c1ccc(Cl)cc1	inconclusive: 28.2 µM [inhibitor, partial curve]	
Cc1cc2c(c(C#N)c1C)NC=NC2C (centres undefined)	inconclusive: 1.41 µM [inhibitor, full curve, poor fit]	
